# Patent publication US10945989B2, “Perinatal treatment with a flavonoid agonist of the TrkB receptor for BDNF rescues neurogenesis and behavior in the Ts65Dn mouse model of DS” (ALMA MATER STUDIORUM—Universita' di Bologna, priority 2017, dated 2021)
# At least one structure is not confirmed: it was looked up by name or label, or the drawing left a doubt.
# System: NPCs from the SVZ of Ts65Dn mice
# Test: Proliferation of NPC cultures (Cell Titer-Glo)
# Format: cell-based, mouse
# Settings: 2 mM lithium, positive control
# Method: Cells were isolated from the subventricular zone (SVZ) of the lateral ventricle and the subgranular zone (SGZ) of the hippocampal dentate gyrus (DG) of newborn (P1-P2) euploid and Ts65Dn mice. Briefly, brains were removed, the SVZ and SGZ regions were isolated and individually collected in ice-cold PIPES buffer pH 7.4. After centrifugation, tissue was digested for 10 min at 37° C. using Trypsin/EDTA 0.25% (Life Technologies) aided by gentle mechanical dissociation. Cell suspension from each individual mouse was plated onto 25 cm^2 cell-culture flask (Thermo Fisher Scientific) and cultured as floating neurospheres in medium containing basic fibroblast growth factor (bFGF, 10 ng/ml; Peprotech) and epidermal growth factor (EGF, 20 ng/ml; Peprotech) using an established protocol (Meneghini et al., 2014). […] Cell proliferation was quantified as relative luminescence units (RLU) values using Cell Titer-Glo viability assay reagent (Promega) on aVictor^3-V plate reader (PerkinElmer). […] In each experiment, five fields/well (corresponding to about 150-200 cells/well) were counted with a 60× objective by a Leica DMIRB inverted fluorescence microscope. Immunoreactive cells were counted and their percentage over total viable cells was calculated. […]
smiles,measurement,value
"[Li] [lithium, reference compound]",proliferation rate of trisomic NPCs,highly responsive to the pro-proliferative action
